Laboratory results from paper PMC4755741.
These are yes or no findings as the source states them, for the method shown. Binding seen in cells or lysates may run through a third protein. Some results given as binding are weak or reduced against the parent protein; the word gives no strength.

Sequences of proteins named here, by UniProt entry; tags and fusion partners are left off. A change or cut given only in a name is not applied to a line headed by its entry.
UniProt Q91X17: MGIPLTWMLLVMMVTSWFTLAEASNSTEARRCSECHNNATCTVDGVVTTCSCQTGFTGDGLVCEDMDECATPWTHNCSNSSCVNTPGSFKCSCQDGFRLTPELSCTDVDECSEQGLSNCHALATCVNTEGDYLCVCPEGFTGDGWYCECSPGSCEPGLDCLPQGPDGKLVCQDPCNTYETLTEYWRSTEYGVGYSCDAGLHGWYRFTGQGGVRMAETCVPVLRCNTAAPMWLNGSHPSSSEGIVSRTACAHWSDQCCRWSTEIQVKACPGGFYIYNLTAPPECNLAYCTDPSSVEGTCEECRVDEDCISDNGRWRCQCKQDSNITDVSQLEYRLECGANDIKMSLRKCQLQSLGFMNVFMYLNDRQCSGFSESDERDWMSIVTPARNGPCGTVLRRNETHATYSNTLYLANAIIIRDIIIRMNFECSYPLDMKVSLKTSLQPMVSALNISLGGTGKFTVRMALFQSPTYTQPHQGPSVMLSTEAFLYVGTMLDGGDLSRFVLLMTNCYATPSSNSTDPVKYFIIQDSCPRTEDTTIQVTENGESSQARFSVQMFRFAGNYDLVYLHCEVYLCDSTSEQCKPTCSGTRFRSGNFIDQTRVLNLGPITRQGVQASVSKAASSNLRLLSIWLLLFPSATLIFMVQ

Legend:
Experiment in all cases: co-sedimentation; polymerisation assay on urinary samples as in Jovine et al., 2002; supernatant and pellet fractions blotted for uromodulin
[1] = target: urinary uromodulin from control (wild-type) mice (mouse (endogenous in urine)) (UniProt Q91X17)
[2] = target: urinary uromodulin, long isoform, from Hpn-/- mice (mouse (endogenous in urine)) (UniProt Q91X17)
[3] = target: urinary uromodulin, short isoform, from Hpn-/- mice (mouse (endogenous in urine)) (UniProt Q91X17)

Substance: urinary uromodulin from control (wild-type) mice (from UniProt Q91X17 25-588)
- binding [1]: binds

Substance: urinary uromodulin, long isoform, from Hpn-/- mice (from UniProt Q91X17 25-616)
- binding [2]: no binding

Substance: urinary uromodulin, short isoform, from Hpn-/- mice (from UniProt Q91X17 25-607)
- binding [3]: no binding
